Values quoted from earlier work, collected in patent publication US20090053192A1, “TISSUE-NONSPECIFIC ALKALINE PHOSPHATASE (TNAP) ACTIVATORS AND USES THEREOF” (BURNHAM INSTITUTE FOR MEDICAL RESEARCH, priority 2007, published 2009).
Some entries share one result that the patent states for a list of compounds.

Settings: unsuccessful clinical ERT attempts by injections; cited from earlier work

B1: purified placental ALP: purified placental ALP (protein, UniProt P05187 23-506, looked up)
Alkaline phosphatase, …: IIPVEEENPDFWNREAAEALGAAKKLQPAQTAAKNLIIFLGDGMGVSTVTAARILKGQKKDKLGPEIPLAMDRFPYVALSKTYNVDKHVPDSGATATAYLCGVKGNFQTIGLSAAARFNQCNTTRGNEVISVMNRAKKAGKSVGVVTTTRVQHASPAGTYAHTVNRNWYSDADVPASARQEGCQDIATQLISNMDIDVILGGGRKYMFRMGTPDPEYPDDYSQGGTRLDGKNLVQEWLAKRQGARYVWNRTELMQASLDPSVTHLMGLFEPGDMKYEIHRDSTLDPSLMEMTEAALRLLSRNPRGFFLFVEGGRIDHGHHESRAYRALTETIMFDDAIERAGQLTSEEDTLSLVTADHSHVFSFGGYPLRGSSIFGLAPGKARDRKAYTVLLYGNGPGYVLKDGARPDVTESESGSPEYRQQSAVPLDEETHAGEDVAVFARGPQAHLVHGVQEQTFIAHVMAFAACLEPYTACDLAPPAGTTD
elevation in serum ALP activity: ≤ 8 fold
